Test: general procedure: solution-phase peptide synthesis; DEPC/DIEA; HATU/DIEA
Conditions: for conjugation yield: conjugation step
[1] = late stage modification step, 210 nm
[2] = late stage modification step, 254 nm

Substance: 4-((S)-2-((S)-2-(6-(2,5-dioxo-2,5-dihydro-1H-pyrrol-1-yl)hexanamido)-3-methylbutanamido)-5-ureidopentanamido)benzyl (4-((3R,4S,7S,10S)-4-((S)-sec-butyl)-7,1-diisopropyl-3-(2-((S)-2-((1R,2R)-1-methoxy-2-methyl-3-oxo-3-(((S)-2-phenyl-1-(thiazol-2-yl)ethyl)amino)propyl)pyrrolidin-1-yl)-2-oxoethyl)-5,111-dimethyl-6,9-dioxo-2-oxa-5,8,11-triazatridecan-13-yl)phenyl)(methyl)carbamate 2,2,2-trifluoroacetate
- conjugation yield: 54%

Substance: ((2R,3R)-3-((S)-1-((3R,4S,5S)-4-((S)-2-((S)-2-((4-(6-(2,5-dioxo-2,5-dihydro-1H-pyrrol-1-yl)-N-methylhexanamido)phenethyl)(methyl)amino)-3-methylbutanamido)-N,3-dimethylbutanamido)-3-methoxy-5-methylheptanoyl)pyrrolidin-2-yl)-3-methoxy-2-methylpropanoyl)-L-phenylalanine 2,2,2-trifluoroacetate
- conjugation yield: 62%

Substance: ((2R,3R)-3-((S)-1-((3R,4S,5S)-4-((S)-2-((S)-2-((4-((S)-2-((S)-2-(6-(2,5-dioxo-2,5-dihydro-1H-pyrrol-1-yl)hexanamido)-3-methylbutanamido)-5-ureidopentanamido)phenethyl)(methyl)amino)-3-methylbutanamido)-N,3-dimethylbutanamido)-3-methoxy-5-methylheptanoyl)pyrrolidin-2-yl)-3-methoxy-2-methylpropanoyl)-L-phenylalanine 2,2,2-trifluoroacetate
- conjugation yield: 36%

Substance: ((2R,3R)-3-((S)-1-((3R,4S,5S)-4-((S)-2-((S)-2-((4-((S)-2-((S)-2-(6-(2,5-dioxo-2,5-dihydro-1H-pyrrol-1-yl)hexanamido)-3-methylbutanamido)-N-methyl-5-ureidopentanamido)phenethyl)(methyl)amino)-3-methylbutanamido)-N,3-dimethylbutanamido)-3-methoxy-5-methylheptanoyl)pyrrolidin-2-yl)-3-methoxy-2-methylpropanoyl)-L-phenylalanine 2,2,2-trifluoroacetate
- conjugation yield: 24%

Substance: ((2R,3R)-3-((S)-1-((3R,4S,5S)-4-((S)-2-((S)-2-((4-aminophenethyl)(methyl)amino)-3-methylbutanamido)-N,3-dimethylbutanamido)-3-methoxy-5-methylheptanoyl)pyrrolidin-2-yl)-3-methoxy-2-methylpropanoyl)-L-phenylalanine 2,2,2-trifluoroacetate
- step yield (late stage modification step): 66%
- final HPLC purity (late stage modification step, 220 nm): 100%

Substance: (S)-2-((2R,3R)-3-((S)-1-((3R,4S,5S)-4-((S)-2-((S)-2-((3-aminobenzyl) (methyl)amino)-3-methylbutanamido)-N,3-dimethylbutanamido)-3-methoxy-5-methylheptanoyl)pyrrolidin-2-yl)-3-methoxy-2-methylpropanamido)-3-phenylpropanoic acid
- step yield (late stage modification step): 20%
- final HPLC purity [1]: 92.5%

Substance: (S)-2-((2R,3R)-3-((S)-1-((3R,4S,5S)-4-((S)-2-((S)-2-((3-aminopropyl)(methyl)amino)-3-methylbutanamido)-N,3-dimethylbutanamido)-3-methoxy-5-methylheptanoyl) pyrrolidin-2-yl)-3-methoxy-2-methylpropanamido)-3-phenylpropanoic acid
- step yield (late stage modification step): 21%
- final HPLC purity [1]: 96.83%

Substance: (S)-2-((2R,3R)-3-((S)-1-((3R,4S,5S)-4-((S)—N,3-dimethyl-2-((S)-3-methyl-2-(methyl(4-(methylamino)phenethyl)amino)butanamido)butanamido)-3-methoxy-5-methyl heptanoyl)pyrrolidin-2-yl)-3-methoxy-2-methylpropanamido)-3-phenylpropanoic acid
- step yield (late stage modification step): 20%
- final HPLC purity [1]: 90.9%

Substance: (S)-2-((2R,3R)-3-((S)-1-((3R,4S,5S)-4-((S)—N,3-dimethyl-2-((S)-3-methyl-2-(methyl(pyridin-4-ylmethyl)amino)butanamido)butanamido)-3-methoxy-5-methylheptanoyl)pyrrolidin-2-yl)-3-methoxy-2-methylpropanamido)-3-phenylpropanoic acid
- step yield (late stage modification step): 20%
- final HPLC purity [1]: 89.1%

Substance: (S)-2-((S)-2-((3-aminopropyl)(methyl)amino)-3-methylbutanamido)-N-((3R,4S,5S)-3-methoxy-1-((S)-2-((1R,2R)-1-methoxy-2-methyl-3-oxo-3-(((S)-2-phenyl-1-(thiazol-2-yl)ethyl)amino)propyl)pyrrolidin-1-yl)-5-methyl-1-oxoheptan-4-yl)-N,3-dimethylbutanamide, bis trifluoroacetic acid
- step yield (late stage modification step): 25%
- final purity (method not given) [2]: 93.7%

Substance: (S)-2-((S)-2-((4-aminobenzyl)(methyl)amino)-3-methylbutanamido)-N-((3R,4S,5S)-3-methoxy-1-((S)-2-((1R,2R)-1-methoxy-2-methyl-3-oxo-3-(((S)-2-phenyl-1-(thiazol-2-yl)ethyl)amino)propyl)pyrrolidin-1-yl)-5-methyl-1-oxoheptan-4-yl)-N,3-dimethylbutanamide, trifluoroacetic Acid
- crude purity (method not given) (late stage modification step, LC/MS/UV, 254 nm): 93.2%

Substance: (S)—N-((3R,4S,5S)-3-methoxy-1-((S)-2-((1R,2R)-1-methoxy-2-methyl-3-oxo-3-(((S)-2-phenyl-1-(thiazol-2-yl)ethyl)amino)propyl)pyrrolidin-1-yl)-5-methyl-1-oxoheptan-4-yl)-N,3-dimethyl-2-((S)-3-methyl-2-(methyl(4-(methylamino)phenethyl)amino) butanamido)butanamide
- step yield (late stage modification step): 39%
- final HPLC purity [2]: 93.68%

Substance: Methyl ((2R,3R)-3-((S)-1-((3R,4S,5S)-4-((S)-2-((S)-2-((4-aminophenethyl)(methyl)amino)-3-methylbutanamido)-N,3-dimethylbutanamido)-3-methoxy-5-methylheptanoyl)pyrrolidin-2-yl)-3-methoxy-2-methylpropanoyl)-L-phenylalaninate
- step yield (coupling step): 45%
- final HPLC purity (coupling step, 220 nm): 95.3%

Substance: N—((S)-1-(((S)-1-((4-((3R,4S,7S,10S)-4-((S)-sec-butyl)-7,10-diisopropyl-3-(2-((S)-2-((1R,2R)-1-methoxy-2-methyl-3-oxo-3-(((S)-2-phenyl-1-(thiazol-2-yl)ethyl)amino)propyl)pyrrolidin-1-yl)-2-oxoethyl)-5,11-dimethyl-6,9-dioxo-2-oxa-5,8,11-triazatridecan-13-yl)phenyl)amino)-1-oxo-5-ureidopentan-2-yl)amino)-3-methyl-1-oxobutan-2-yl)-6-(2,5-dioxo-2,5-dihydro-1H-pyrrol-1-yl)hexanamide 2,2,2-trifluoroacetate
- conjugation yield: 70%

Substance: methyl ((2R,3R)-3-((S)-1-((3R,4S,5S)-4-((S)-2-((S)-2-((3-(6-(2,5-dioxo-2,5-dihydro-1H-pyrrol-1-yl)hexanamido)benzyl)(methyl)amino)-3-methylbutanamido)-N,3-dimethylbutanamido)-3-methoxy-5-methylheptanoyl)pyrrolidin-2-yl)-3-methoxy-2-methylpropanoyl)-L-phenylalaninate 2,2,2-trifluoroacetate
- conjugation yield: 50%

From patent US10858423B2 (PIERRE FABRE MEDICAMENT, priority 2015, dated 2020)
